# Measurements from PubChem BioAssay AID1296 (Columbia University Molecular Screening Center, 2008).
# Screen size: about 130,000 compounds; about 1,000 (0.77%) were called active. The shares of active, inactive and inconclusive entries below differ from those in the screen.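 The calls were made as follows: active = activation at 2 µM above a set limit, confirmed on inspection of the cell images; inconclusive = above the set limit but not confirmed on image inspection; inactive = the rest.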
# Assay: activators of insulin promoter-driven GFP, primary screen, imaging, TRM-6 cells (human fetal islet line), eGFP reporter, cell count (AID 1296;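 also: share of cells whose green reporter signal exceeds an intensity cutoff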)
# Conditions: at 2 µM, hits give high values, plate-scaled: unstimulated 0, stimulated control 100
# Outline: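 Assay system: TRM-6 insulin promoter–eGFP reporter cells / Input: 1,000 cells per well / Medium: Low-glucose (5.5 mM) medium with tamoxifen / Also added: tamoxifen inducer, 0.75 µM, in seeding medium / Timing: overnight tamoxifen, then two-day compound incubation at 37 °C / Signal: automated fluorescence imaging of paraformaldehyde-fixed, Hoechst-counterstained cells, green channel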
row,SMILES,activation
1,CN(C)S(=O)(=O)N1CCC(c2ccc(F)cc2)C(COc2ccc3c(c2)OCO3)C1 (stereo not drawn),inconclusive: 121%
2,CC(C)CN1C(=O)/C(=C/c2cccs2)NC1=S,active: 431%
3,Cc1ccc(C2C3=C(CC(C)(C)CC3=O)NC3=C2C(=O)c2ccccc23)cc1 (stereo not drawn),inconclusive: 317%
4,COc1cc(C(=O)NC2CCN(Cc3nnnn3Cc3ccc(F)cc3)CC2)cc(OC)c1OC,active: 515%
5,COc1ccccc1-c1ccc(SCC(=O)N2CCOCC2)nn1,inconclusive: 327%
6,COC(=O)Nc1nn(-c2ccc(OC)cc2)c(=O)c(C#N)c1C,active: 287%
7,Cc1ccc(C(C(=O)NC2CCCC2)N(Cc2ccco2)C(=O)CCC(=O)Nc2cc(C)on2)cc1 (stereo not drawn),active: 810%
8,CC(=O)c1ccc(N2CCN(C(=O)c3ccco3)C(C)C2)c(F)c1 (stereo not drawn),inconclusive: 438%
9,COCCCNC(=O)CC(NS(=O)(=O)c1ccc(Cl)cc1)c1ccco1 (stereo not drawn),inconclusive: 136%
10,O=C(CCc1ccccc1)Nc1ccc(F)cc1F,inconclusive: 450%
11,Brc1ccc2c(c1)C(C1=NCCN1)c1ccccc1CS2 (stereo not drawn),inconclusive: 285% [cytotoxic]
12,CCOc1nnc(C)c2c(C)n(-c3cccc(Cl)c3)nc12,active: 162%
13,Cc1c(C(c2cc3c(cc2Br)OCO3)c2c(C)n(C)n(-c3ccccc3)c2=O)c(=O)n(-c2ccccc2)n1C,inconclusive: 233%
14,Cc1nnc(NC(=O)CSc2nnnn2Cc2ccccc2)s1,inconclusive: 419%
15,COc1ccc(N(CC(=O)Nc2ccccc2C(=O)NCCc2ccccc2)S(C)(=O)=O)cc1OC,inactive: 0%
16,CCc1cccc(NC(=O)CCSCCC(=O)Nc2cccc(CC)c2)c1,active: 89.7%
17,CC(C)(C)C(=O)Cn1ncc(Cl)c(Cl)c1=O,inconclusive: 544%
18,COc1ccc(C)cc1NC(=O)NCc1ccc(F)cc1,inactive: 6.98%
19,CCOC(=O)N1CCN(CC(O)COCc2ccc(Cl)cc2)CC1 (stereo not drawn),inconclusive: 564%
20,O=C(c1ccccc1F)N1CCN(Cc2ccccc2F)CC1,inconclusive: 493%
21,O=S(=O)(c1ccc(OCC2CO2)cc1)c1ccc(OCC2CO2)cc1 (stereo not drawn),inconclusive: 400%
22,CCSc1ccc(NC(=O)c2cccnc2)cc1,inactive: 5.41%
23,CSCC(NS(=O)(=O)c1ccc(C)cc1)C(=O)O (stereo not drawn),inconclusive: 387%
24,Cc1cc2nc3c(=O)n(C4CCCCC4)c(=O)[nH]c3nc2cc1N,inconclusive: 343%

# 6 entries from above, set out differently:
row	SMILES	activation
2	CC(C)CN1C(=O)/C(=C/c2cccs2)NC1=S	active: 431%
3	Cc1ccc(C2C3=C(CC(C)(C)CC3=O)NC3=C2C(=O)c2ccccc23)cc1 (stereo not drawn)	inconclusive: 317%
4	COc1cc(C(=O)NC2CCN(Cc3nnnn3Cc3ccc(F)cc3)CC2)cc(OC)c1OC	active: 515%
5	COc1ccccc1-c1ccc(SCC(=O)N2CCOCC2)nn1	inconclusive: 327%
6	COC(=O)Nc1nn(-c2ccc(OC)cc2)c(=O)c(C#N)c1C	active: 287%
7	Cc1ccc(C(C(=O)NC2CCCC2)N(Cc2ccco2)C(=O)CCC(=O)Nc2cc(C)on2)cc1 (stereo not drawn)	active: 810%

# (list continues)

row,SMILES,activation
1,COc1ccc(OCC(=O)Nc2ccccc2C(=O)N2CCOCC2)cc1,inconclusive: 200%
2,Cc1c(=O)n(OCc2cccc(F)c2)c2ccccc2[n+]1[O-],active: 132%
3,CCOc1cccc(C(=O)Nc2nccs2)c1,inconclusive: 456%
4,O=C(O/N=C/c1cccc([N+](=O)[O-])c1)C1CC1,active: 209%
5,OC(CNCC(c1ccc(Cl)cc1Cl)c1c[nH]c2ccccc12)c1ccccc1 (stereo not drawn),inconclusive: 314% [cytotoxic]
6,Cc1ccsc1C(=O)Nc1cccc(S(=O)(=O)N(C)C)c1,active: 431%
7,Nc1nnc(CCOc2ccc(Cl)cc2)s1,inconclusive: 469%
8,c1ccc(-c2nc3nc4ccccc4nc3n2Cc2ccco2)cc1,active: 200%
9,CCOC(=O)c1cc(C(C)(C)C)oc1CNC(=O)c1c(C)oc2c1CCCC2,active: 493%
10,CC(C)(C)c1cc(C(C)(C)C)cc(S(=O)(=O)CCc2ccccn2)c1,inconclusive: 467%
11,COc1cc(/C=C/C(=O)O)ccc1S(=O)(=O)N1CCCc2ccccc21,inconclusive: 173%
12,CCOc1ccc(Nc2cc(C)nc(-n3nc(C)cc3C)n2)cc1,inconclusive: 186% [cytotoxic]
13,COc1ccc(CCNC(=O)CSc2nnc(Cc3csc(N)n3)n2C)cc1OC,inconclusive: 431%
14,CN(Cc1ccccc1)Cc1nc2c(c(=O)n(C)c(=O)n2C)n1CCCc1ccccc1,inconclusive: 444%
15,Oc1ccc(Nc2nc3ccccc3nc2Nc2ccc(O)cc2)cc1,inconclusive: 256% [cytotoxic]
16,O=S(=O)(Nc1ccc(S(=O)(=O)Nc2nccs2)cc1)c1ccc2c(c1)OCCO2,inactive: -5.41%
17,CCC(=O)NC(=S)Nc1ccccc1C(=O)NC1CCCCC1,inconclusive: 207%
18,Cn1nc(-c2ccccc2)c(-c2nc(-c3ccc(Cl)cc3)no2)c1Cl,active: 471%
19,Cc1ccn(C(=O)c2ccc(NC(=O)C3CCCCC3)cc2)n1,inconclusive: 407%
20,CC1=C(C(=O)OCc2ccccc2)C(c2ccccc2OC(F)F)NC(=O)N1 (stereo not drawn),active: 300%
21,N#Cc1c(NC(=O)c2ccccc2)sc2c1CCCCC2,inconclusive: 443%
22,Cc1cccc(-n2cnc(C(=O)NNC(=S)Nc3ccc(Cl)cc3)c2)n1,inactive: -6.67%
23,COc1ccccc1CO/N=C/c1cccn1-c1nccc(N(C)C)c1C#N,inconclusive: 80.7%
24,N#Cc1ccccc1Cn1cc(C#N)c2ccccc21,inconclusive: 462%

row,SMILES,activation
1,CC1=Nc2ccc3ccccc3c2C1(C)C,inconclusive: 160%
2,CCN(CC)C(=O)C(Cc1ccccc1)N1C(=O)c2ccccc2C1=O (stereo not drawn),inactive: 4.35%
3,COc1cc(C(=O)NCC2CCCO2)cc(OC)c1OC (stereo not drawn),inconclusive: 520%
4,CC(=O)Oc1ccc2oc(=O)c3c(c2c1)CCCN3C(=O)CN1CCOCC1,inactive: -6.67%
5,Cc1ccc(-n2c(C)nnc2SCC(=O)NNC(=O)c2ccco2)cc1,inconclusive: 733%
6,Cc1nnsc1SCC(=O)O,inactive: -6.67%
7,Cc1ccc2nc(C)cc(C(=O)OCC(=O)Nc3c(C)n(C)n(-c4ccccc4)c3=O)c2c1,inactive: 0%
8,CN(C)c1ccnc(-n2cccc2/C=N/OCc2cccc(F)c2)c1C#N,inconclusive: 96.8%
9,Cc1ccc(OCC(=O)N2c3ccccc3CC2C)c([N+](=O)[O-])n1 (stereo not drawn),inactive: -7.14%
10,Cc1ccc(C(=O)Nc2ccc3nc(C)sc3c2)s1,active: 562%
11,Cc1ccc2c(c1)NC(c1cccs1)C1=C(CC(C)(C)CC1=O)N2 (stereo not drawn),inconclusive: 424% [cytotoxic]
12,COc1ccc(F)cc1S(=O)(=O)NC1CCCC1,active: 82.9%
13,COc1ccc(CCn2c(N3CCOCC3)nc3c2c(=O)[nH]c(=O)n3C)cc1,active: 100%
14,COc1ccc(CCc2nnc(CCC(=O)N(C)Cc3ccnc4ccccc34)o2)cc1,inactive: 9.52%
15,COP(C)(=O)c1c(C)nn(-c2ccccc2)c1C (stereo not drawn),active: 83.6%
16,O=C(COC(=O)c1ccc(Cl)cc1O)NC(=O)C1CCCCC1,inconclusive: 278%
17,O=C(NCCc1ccccc1)C1CCCN1S(=O)(=O)c1ccc(F)cc1 (stereo not drawn),inconclusive: 412%
18,Cc1ccc(CN(C(=O)C(F)(F)F)C(C(=O)NC2CCCCC2)c2ccco2)cc1 (stereo not drawn),inconclusive: 412%
19,CC1=C/C(=N\OS(=O)(=O)c2ccccc2)C(C(C)C)=CC1=O,inconclusive: 317% [cytotoxic]
20,c1ccc2c(CCNc3ncnc4nc[nH]c34)cccc2c1,inactive: 276%
21,COc1ccc(-c2noc(CCC(=O)N3CCC(C)CC3)n2)cc1,inactive: 113%
22,Cc1cc(N2CCN(S(=O)(=O)c3ccc(Cl)cc3)CC2)c2ccccc2n1,active: 100%
23,Cc1ccc(C(=O)c2no[n+]([O-])c2C(=O)c2ccc(C)cc2)cc1,inconclusive: 456% [cytotoxic]
24,Cc1ccc(C2=NN(CC(=O)NCc3ccccn3)C(=O)CC2)cc1,inactive: 4.76%

row,SMILES,activation
1,CCC(C)[C@H](NC(=O)OC(C)(C)C)C(=O)N/N=C/c1ccc2nccnc2c1 (stereo partly drawn),inconclusive: 460%
2,CC1(C(=O)NCc2ccc(Cl)c(Cl)c2)Oc2cccnc2NC1=O (stereo not drawn),inconclusive: 208%
3,Cc1ccc(-c2cc(C(=O)N3CCN(C(=O)c4ccco4)CC3)no2)cc1,inconclusive: 406%
4,COc1ccc(OC)c(NC(=O)CSc2nnc(Cn3c(=O)sc4ccccc43)n2C)c1,inactive: -62.5%
5,COc1ccccc1NS(=O)(=O)c1cc([N+](=O)[O-])ccc1N/N=C/c1c(C)[nH]c2ccccc12,active: 260%
6,N#CCSc1ccc(-c2nc3ccccc3[nH]2)cn1,inactive: -89.7%
7,CCN(Cc1ccncc1)Cc1nc(CC2CC2)no1,inconclusive: 264%
8,O=C1c2cccc3cc([N+](=O)[O-])cc(c23)C(=O)N1c1ccccc1O,inconclusive: 240%
9,CC(C)C(C)NC(=O)COc1ncnc2sccc12 (stereo not drawn),inconclusive: 328%
10,COc1cc(NC(=O)c2ccccc2)c(OC)cc1Cl,inconclusive: 479%
11,CC(C)CNS(=O)(=O)c1ccc(CCC(=O)NCc2ccco2)cc1,inconclusive: 488%
12,O=C(Nc1ccc(S(=O)(=O)N2CCc3ccccc3C2)cc1)c1ccccc1,active: 407%
13,O=C(O)C1CCCCC1C(=O)Nc1ccc2c(c1)CCC2 (stereo not drawn),inconclusive: 425%
14,COc1ccccc1C(=O)N1C(CC(=O)Nc2cc(Cl)ccc2C)C(=O)NC2CCCCC21 (stereo not drawn),inconclusive: 523%
15,CC(C)C(c1nnnn1C1CCCC1)N1CCOCC1 (stereo not drawn),inconclusive: 469%
16,Cc1nn(-c2ccccc2)c(C)c1/C=N/n1c(-c2ccc(C(C)(C)C)cc2)n[nH]c1=S,inconclusive: 213%
17,O=C(Nc1ccc2c(c1)OCO2)N1CCN(c2cccc(C(F)(F)F)c2)CC1,inconclusive: 500%
18,COc1ccc(N/C=C(\C#N)c2nc3ccccc3n2C)c(OC)c1,inconclusive: 138%
19,O=C1NC(=Nc2ccc(F)cc2)CS1,inconclusive: 183%
20,CC(CN1CCCCC1)C(=O)NN (stereo not drawn),inactive: -6.67%
21,COc1ccc(CCNc2cc(=O)[nH]c(N)n2)cc1,active: 615%
